Experimental data taken from PubChem BioAssay AID493014 (National Center for Advancing Translational Sciences (NCATS), 2011).
The campaign covered roughly 340,000 compounds. About 170 (0.05%) were called active. The shares of active, inactive and inconclusive entries below differ from those in the screen. Calls come from the whole dose curve; as a rule, active = well fitted inhibition curve with a large enough effect in the signal ratio, with a control signal flat (not every such curve was filed as active); inconclusive = small, poorly fitted or top-dose-only effect, or effect the other way, or a change in a side signal; inactive = flat fitted curve, though single readings scatter; the % refers to the signal ratio. Potencies beside an inconclusive call are fits to weak or partial responses and may not hold up.

Experiment: qHTS Assay to Find Inhibitors of Chronic Active B-Cell Receptor Signaling;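 for activity change, negative = inhibition: plate controls were basal doxycycline-induced cells for no effect and cells given 10 µM MG132 for full effect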
Settings: ABC-DLBCL IkBa-CBG/CBR reporter, luminescence ratio (green luciferase fused to IkBa over red control in TMD8 lymphoma cells), 4 h; activity change, negative = inhibition: at 46.1 µM (top of the series)
Outline: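 Doxycycline induced both beetle luciferases in TMD8 lymphoma cells; IKK-driven degradation limits the IkappaBalpha-fused green signal, while red luminescence normalises for cell number and nonspecific effects. Compounds tested up to 46 uM, 4 hrs.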
Potency is the fitted concentration of half-maximal effect.

Structure (SMILES) | activity change, negative = inhibition | Potency
CCOc1ccc(NC(=O)Nc2ccc(Cc3ccncc3)cc2)cc1 | inactive: 0.845% | –
CN(C)CCCN(C(=O)c1ccc(C(=O)c2ccccc2)cc1)c1nc2cc3c(cc2s1)OCO3 | inconclusive: -21.5% | –
COC(=O)c1ccc(OCC(=O)c2cccc(OC)c2)cc1 | – | inconclusive: 23.1 µM [falling, partial curve, poor fit]
C/C(CC(=O)Nc1cccnc1)=N\NC(=O)C(=O)Nc1cccc(C)c1 | inconclusive: -13% | –
CCc1cccc2c(C#N)cn(CC(=O)NCCOC)c12 | inconclusive: -103% | –
CN(C(=O)c1c[nH]c2ccc(S(=O)(=O)Nc3cccc(C(F)(F)F)c3)cc2c1=O)C1CCCCC1 | – | inconclusive: 6.31 µM [falling, single point]
COc1cccc2sc(NC(=O)c3ccc(S(=O)(=O)N4CCOCC4)cc3)nc12 | inconclusive: 16.3% | –
O=C(Cn1c(=O)cnc2ccccc21)Nc1cc(Cl)ccc1N1CCOCC1 | inconclusive: -6.25% | –
CC(C)c1ccc(OC(=O)c2ccc3c(=O)n4c(nc3c2)CCC4)cc1 | inactive: 18.1% | –
Cc1cccc(NC(=O)c2nc[nH]c2C(=O)N[C@@H](CC(C)C)C(=O)OC(C)(C)C)c1 | inactive: 8.25% | –
CC1CCN(S(=O)(=O)c2ccc3c(c2)NC(=O)CS3)CC1 | inactive: 3.51% | –
CCOc1ccc(S(=O)(=O)c2c[nH]c3ccc(C)cc3c2=O)cc1 | inactive: -2.32% | –
CCn1c(SCC(=O)NC2CCCC2)nnc1C(C)C | inactive: -2.45% | –
CC(=O)c1cnc(Nc2cccc(Cl)c2Cl)s1 | inactive: -2.01% | –
COc1ccc(-c2noc(-c3cccc(Cl)c3)n2)cc1OC | inconclusive: 5.87% | –
O=C(C1=C[C@@H](c2csc3ccccc23)C[C@@H](OCCCCO)O1)N1CCN(Cc2ccc3c(c2)OCO3)CC1 | – | inconclusive: 7.94 µM [falling, partial curve]
CC(C)Cn1c(Cc2ccccc2)n[nH]c1=S | – | inconclusive: 14.1 µM [falling, single point]
Cc1ccc(OC(=O)c2sc(Cl)nc2C)cc1C | inconclusive: 3.35% | –
CCOc1ccc(N=CC2=C(O)CC(C)(C)CC2=O)cc1 | inconclusive: 6.47% | –
CCOC(=O)C(Sc1nn(C)c(=S)s1)C(C)=O (configuration not stated) | inconclusive: 11.9% | –
COc1ccc(CC(=O)Nc2ncc([N+](=O)[O-])s2)cc1OC | inactive: -9.87% | –
Cc1cc(C)c(C)c(S(=O)(=O)N2CCC(C(=O)OCC(=O)N3c4ccccc4NC(=O)C3(C)C)CC2)c1C | inactive: 8.24% | –
Cc1ccccc1C(=O)NC[C@@H]1CCCN2CCCC[C@H]12 | inconclusive: 0.326% | –
COC(=O)[C@]1(Cc2ccccc2)N[C@H](c2ccc(-c3cc(C(C)=O)cs3)cc2)[C@@H]2C(=O)N(C)C(=O)[C@@H]21 | inactive: -12.9% | –
COc1cc2ccccc2cc1C(=O)OCC(=O)c1c(N)n(C)c(=O)n(C)c1=O | inactive: -0.914% | –
CN1CCN(c2ccccc2NC(=O)c2ccc(-c3cccc([N+](=O)[O-])c3)o2)CC1 | – | inconclusive: 2.91 µM [falling, partial curve, poor fit]

Given comma-delimited: entries from further up
Structure (SMILES),"activity change, negative = inhibition",Potency
CN(C)CCCN(C(=O)c1ccc(C(=O)c2ccccc2)cc1)c1nc2cc3c(cc2s1)OCO3,inconclusive: -21.5%,–
COC(=O)c1ccc(OCC(=O)c2cccc(OC)c2)cc1,–,"inconclusive: 23.1 µM [falling, partial curve, poor fit]"
C/C(CC(=O)Nc1cccnc1)=N\NC(=O)C(=O)Nc1cccc(C)c1,inconclusive: -13%,–

The results go on:

Structure (SMILES) | activity change, negative = inhibition | Potency
CC(=O)Nc1ccc(Nc2nc(-c3sc(C)nc3C)cs2)cc1 | – | inconclusive: 28.2 µM [falling, single point]
O=C1N(Cc2cccc(Cl)c2)C[C@@H]2C[C@@H](c3ccc4nonc4c3)N3CCC[C@@]123 | – | inconclusive: 5.62 µM [falling, partial curve, poor fit]
CCN1CCc2c(sc(NC(=O)c3ccc(S(=O)(=O)N(C)C4CCCCC4)cc3)c2C(N)=O)C1 | inactive: -9.85% | –
COC(=O)c1cc2sccc2n1Cc1ccc(C)cc1 | inconclusive: 4.26% | –
COc1ccc(Br)cc1[C@H]1[C@@H]2C=CCC[C@@]2(C)C(=O)N1Cc1ccccc1 | inconclusive: -6.95% | –
COc1ccc(-c2csc(NC(=O)c3ccccc3F)n2)cc1 | inconclusive: 10.8% | –
COc1ccc(OC)c(C2C(C(=O)c3ccccc3)=C(C)Nc3nc4ccccc4n32)c1 (configuration not stated) | inactive: 6.95% | –
CCOC(=O)C(C)n1cnc2c(nnn2-c2cccc(Cl)c2)c1=O (configuration not stated) | inconclusive: 2.72% | –
Cc1ccc(OCc2ccc(C(=O)N3CCOCC3)cc2)cc1C | inconclusive: -11.7% | –
Cc1occc1C(=O)N/N=C/c1ccccc1[N+](=O)[O-] | – | inconclusive: 20 µM [falling, partial curve]
Cc1ccccc1OCC(=O)Nc1ccc(NC(=O)c2ccco2)cc1 | inconclusive: 1.2% | –
CSc1nnc2c(n1)c(C)nn2-c1cccc(C)c1 | inactive: -1.82% | –
Oc1ccccc1/C=N/N1CCCCC1 | inconclusive: 4.99% | –
O=C(CSc1nnc(CNC(=O)c2ccccc2F)o1)c1ccc(Cl)cc1 | – | inconclusive: 29.1 µM [falling, single point]
CC(C)CN=CC1=C(O)c2ccccc2C1=O | – | inconclusive: 20 µM [falling, partial curve]
Cc1cc(C)n(CCN(C)Cc2nc(Cc3ccccc3F)no2)n1 | – | inconclusive: 6.31 µM [rising, single point]
COc1ccc(/C=C(\NC(=O)c2ccccc2)C(=O)N2CCCCC2)cc1OC | inconclusive: 4.4% | –
O=C(Cc1cccc2ccccc12)NNC(=O)c1ccc(Br)o1 | inactive: 0.465% | –
O=C(COC(=O)CNC(=O)c1ccccc1)NC1CCCCC1 | inconclusive: 9.33% | –
CN(C(=O)c1ccc2nc(N)sc2c1)c1ccccc1 | inconclusive: 1.45% | –
O=C(CN1CCN(c2ccccc2F)CC1)c1c[nH]c2ccc(F)cc12 | – | inconclusive: 11.6 µM [falling, partial curve]
CS(=O)(=O)N(CCCC(=O)N1CCCCCC1)c1cccc(Cl)c1 | inactive: 2.56% | –
CNC(=S)N/N=C/c1cn(CCOc2ccc(OC)cc2)c2ccccc12 | – | inconclusive: 23.1 µM [falling, single point]
O=C(c1cc(COc2ccc3ncccc3c2)on1)N1CCCC(O)C1 (configuration not stated) | inactive: -10.3% | –
COc1ccc2c(c1)C(C)=CC(C)(C)N2S(=O)(=O)c1ccc(Br)cc1 | – | inconclusive: 7.08 µM [falling, partial curve]
CC(=O)Nc1cccc(NC(=O)CSc2ccc(-c3ccccn3)nn2)c1 | inconclusive: 8.29% | –
